The source of these data is PMC12120744.

The assay addresses T1, Flag-RNF112 (UniProt Q9ULX5).
T1 sequence: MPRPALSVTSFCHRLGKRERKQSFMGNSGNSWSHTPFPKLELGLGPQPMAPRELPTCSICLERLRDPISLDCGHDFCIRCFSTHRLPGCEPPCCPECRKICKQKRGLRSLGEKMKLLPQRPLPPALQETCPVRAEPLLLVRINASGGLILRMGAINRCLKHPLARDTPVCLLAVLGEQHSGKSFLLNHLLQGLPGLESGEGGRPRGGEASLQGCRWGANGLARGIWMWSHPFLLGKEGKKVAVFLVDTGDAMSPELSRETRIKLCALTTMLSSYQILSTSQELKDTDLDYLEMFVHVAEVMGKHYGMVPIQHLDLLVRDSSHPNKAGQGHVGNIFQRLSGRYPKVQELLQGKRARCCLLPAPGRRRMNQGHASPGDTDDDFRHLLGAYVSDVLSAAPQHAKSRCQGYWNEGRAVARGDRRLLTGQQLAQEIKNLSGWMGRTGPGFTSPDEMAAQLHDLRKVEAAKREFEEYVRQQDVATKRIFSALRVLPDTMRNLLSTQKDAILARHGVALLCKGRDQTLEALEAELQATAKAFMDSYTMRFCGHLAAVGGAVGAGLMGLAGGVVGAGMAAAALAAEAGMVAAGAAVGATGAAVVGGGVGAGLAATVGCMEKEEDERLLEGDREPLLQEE
The assay can be described thus: co-IP; 293T cells transfected with the respective plasmids for 48 h, MG132 (10 µM) for 8 h; lysis in IP buffer 1 h at 4 °C; anti-Flag or anti-HA antibody overnight at 4 °C, magnetic beads 2 h; Western blot. (In western blotting, separated proteins are transferred to a membrane and probed.)

Results are given in words; binding and its absence hold for the method and conditions named. Binding seen in cells or lysates may run through a third protein. Sequences can lack the tags named with a protein.

“N segment of c-Myc with deletion of the MB II domain (domain or fragment)”: the binding entry was “no binding”.
